# From publication PMC10163288
# This is one part of the list.
# B1: il2ra_site2_2erj_normal_mot_HHH_b2_00494_000000216_0001_41_54_H_._HHH_b1_07802_af2_0001_0000300011_0000001_0 (protein)
# chain: SSSSNEELRRLYELADEALRLITEGNPEEAEKVLEEARELAERLNSENAREVVEFLEELLESSSS
# B2: il2ra_site2_2erj_sap_16_mot_HHH_b1_00941_000000051_0001_45_58_H_._HHH_b2_03323_0001_0000600045_0000001_0_0001_af2pred_0001_af2pred (protein)
# chain: SSSSSSSREEVEELLEEAKRIEDLREVLRLLQEADKIAAENEDEELLREIEKVFEELVSSSSSSS
# B3: il2ra_site1_3nfp_normal_mot_HHH_b1_07204_af2_000000238_0001_41_55_H_._HHH_b2_04441_0001_0000100003_0000001_0 (protein)
# chain: SSSSTEELERLLELVEEAFRAAQEGDEELVEELLEEAKELAEKLGDKIALRLLEDIEEQLSSSSS
# B4: il2ra_site2_3nfp_normal_mot_HHH_b1_05628_af2_000000064_0001_19_35_H_._HHH_b1_08457_0001_0000100003_0000001_1 (protein)
# chain: SSSSDAEERVKELEEELREAEKEGDEELLEKLAFELFALASDLQDRRLAAFAAELFIKLKSSSSS
# B5: il2ra_site1_3nfp_normal_mot_HHH_b2_04095_af2_000000160_0001_43_56_H_._HHH_b1_04304_0001_0000200029_0000001_1 (protein)
# chain: SSSSSEEIREFQEIAREVLRLLREGDREEAEELIERLEELAREANSKAAERLVEQLKESASSSSS
# B6: il2ra_site2_3nfp_normal_mot_HHH_b1_05627_af2_000000038_0001_43_56_H_._HHH_b1_04379_0001_0000600032_0000001_0 (protein)
# chain: SSSSDKAEEYLEAALIALEEAIEEGNEEAVEELIRAIKLLAENANDEEIERLLEKLEEEFSSSSS
# B7: il2ra_site2_2erj_sap_9_mot_HHH_b1_00071_af2_000000225_0001_40_56_H_._HHH_b1_00954_0001_0000200010_0000001_0_0001_1 (protein)
# chain: SSSSLHELYELANAAAHAATLAVERGDPELYQRLWRLMKELLETGDPELFEELRELVEEIRSSSS
# B8: il2ra_site1_1z92_sap_24_mot_HHH_b1_03199_000000116_0001_40_57_H_._HHH_b2_00739_af2_0001_0000100002_0000001_1_0001_af2pred_0001_af2pred (protein)
# chain: SLAEEAVEDAKKHTPDPESIAKFLIKLLATIYQIPPEEAIEIAEEIAKELGDEELLKALEELKKK
# B9: il2ra_site1_3nfp_sap_20_mot_HHH_b1_08723_000000044_0001_1_15_H_._HHH_b1_03120_af2_0001_0000500033_0000001_0_0001 (protein)
# chain: SRTIELAIELARKQDEEMAELLEEVVRLYKEKGDPELKELLQEALHLIAKGDPEEAKKVLEEALK
# B10: il2ra_site2_3nfp_normal_mot_HHH_b1_07242_000000112_0001_19_39_H_._ems_3hM_250_0001_0000200004_0000001_0 (protein)
# chain: SNEELERYIEAALRLAKEAARDPRIQELIERVLEEFEEAKEKNDEHALSEVAQLALELAEEAAKS
# Biological target: il2ra, P01589
# Test: yeast display titration
row,Binder,apparent Kd
1,B1,inactive: no binding seen
2,B2,inactive: no binding seen
3,B3,inactive: no binding seen
4,B4,inactive: no binding seen
5,B5,inactive: no binding seen
6,B6,inactive: no binding seen
7,B7,inactive: no binding seen
8,B8,inactive: no binding seen
9,B9,inactive: no binding seen
10,B10,inactive: no binding seen
